The list shows only some results of the screen, not a fair sample: it gathers some chemical classes. Other doses and runs of a compound may be missing. T/C: endpoint of the treated group in % of that of the vehicle group. For survival time, this PubChem deposit counts one and a half times the control or more as active, and values a quarter to a half above the control carry no call in these data; other NCI protocols may use other cut-offs. Some T/C values are marked as having no survivor count here; that says nothing about deaths at the dose. Schedules are NCI's codes, taken here to give the interval after Q, in days (D) or hours (H), and the number of doses after X. Some entries were tested several times; the results are listed from low to high.
Tested on: P1534 leukemia ip, CD2F1 mice, survival T/C
Assay: NCI In Vivo Anticancer Drug Screen. Data for tumor model P1534 Leukemia (intraperitoneal) in CD2F1 (CDF1) mice
Conditions: T/C endpoint: mean survival time, schedule: Q01DX010 (ip), vehicle: saline, higher T/C = longer survival
Method: The antitumor activity of compounds was measured in mice bearing transplantable tumors. Survival or tumor size were measured and the results are expressed as the measurement made in the treated group (T) divided by the measurement made in the vehicle treated control group (C). The tumor model used in this assay is P1534 Leukemia (intraperitoneal) in CD2F1 (CDF1) mice

In the case of CN(CCCl)CCCl, the T/C (dose: 0.13 mg/kg/injection) is reported as 111 [survivor count not shown] and 143 % of control [survivor count not shown], the T/C (dose: 0.25 mg/kg/injection) is reported as 133 [survivor count not shown] and 162 % of control [survivor count not shown] and the T/C (dose: 0.5 mg/kg/injection) is reported as 144 [survivor count not shown] and 156 % of control [survivor count not shown]. The T/C (dose: 1.0 mg/kg/injection) was 137 [survivor count not shown] and 138 % of control [survivor count not shown], the T/C (dose: 62.5 micrograms/kg/injection) was 121 % of control [survivor count not shown] and the T/C (dose: 125.0 micrograms/kg/injection) was 164 % of control [survivor count not shown]. For the same compound, the T/C (dose: 250.0 micrograms/kg/injection) was 150 % of control [survivor count not shown] and the T/C (dose: 500.0 micrograms/kg/injection) was 153 % of control [survivor count not shown].

Reference: PubChem BioAssay AID316 (DTP/NCI, 2004)
